Data source: PubChem BioAssay AID652272 (Drosophila RNAi Screening Center, 2013)

Assay: 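Genome-wide knock-down search for components of Hedgehog signalling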 (primary screen)
Cells: Drosophila clone 8 (Cl8) cells
Reagents: long dsRNA against Drosophila genes
Measured: 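Plate reader light from a firefly reporter under a ptc promoter fragment that responds to Hedgehog, with Renilla light as transfection reference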
Direction: firefly Hh reporter signal: higher = more ptc reporter light; Renilla reference signal: higher = more Renilla control light
Call rule: 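Called a hit if the two-replicate mean z-score lies below -2 or above +3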
Meaning of the calls: active = hit: reporter lowered or raised; inactive = not a hit
The screen tested about 21,000 reagents; shown is a random part of those with a known target gene and a result. In the full data, 503 (2.4%) were called active. 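Raw plate light values, not normalised; calls rest on replicate z-scores that were not deposited; hits include reporter decreases as well as increases.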 A plus sign joins genes that one reagent is predicted to hit. The record does not give: the amount of reagent, the time to read-out.

target	amplicon	firefly Hh reporter signal, replicate 1	firefly Hh reporter signal, replicate 2	firefly Hh reporter signal, replicate 3	Renilla reference signal, replicate 1	Renilla reference signal, replicate 2	call
CG13991	DRSC02323	1.28e5	66352		3232	6473	inactive
Nedd8	DRSC02092	82608	39079		1670	3365	inactive
CG33648	DRSC01387	1.35e5	3.86e5		3045	17468	inactive
Cpr65Ea	DRSC11027	46217	61106		5462	4675	inactive
CG13585	DRSC04221	91747	71082		1808	6425	inactive
Tsen34 + Trl	DRSC10014	78839			4055	2182	inactive
CG15399	DRSC00413	1.43e5	1.25e5		3355	3424	inactive
hoip	DRSC03546	9339	9264		560	1234	active
Arpc4	DRSC02917	1.01e5	37414		2999	4101	inactive
TTLL4A	DRSC02528	1.12e5	1.35e5		4354	5251	inactive
CG4161	DRSC01930	86658	67142		2324	6332	inactive
Hsp70Bb + Hsp70Ba + Hsp70Bc + 1 more	DRSC21247	56534	1.01e5		2471	4518	inactive
Hsp70Bb + Hsp70Ba + Hsp70Bc + 1 more	DRSC21248	55994	1.24e5		2261	5930	inactive
TfIIA-S	DRSC16883	4.46e5	64295		22853	2109	inactive
CG1513	DRSC05194	95708	2.10e5		2316	8187	inactive
CG1513	DRSC06553	4.32e5	75649		3780	3780	inactive
CG1513	DRSC06554	1.41e5	83289		3464	6084	inactive
Rpt6R	DRSC15431	89499	1.31e5		2785	3608	inactive
Sur	DRSC03447	60550	29133		2743	1117	inactive
Taf5	DRSC07562	80320	38720		3392	1552	inactive
CG42676	DRSC08227	87653	66185		4793	3299	inactive
CG42676	DRSC08392	60268	40800		2272	3126	inactive
ATPsynbeta	DRSC17194	56060	1.13e5		2320	4891	inactive
Peritrophin-A	DRSC20570	1.25e5	1.28e5		2967	2993	inactive
CG31910 + snoRNA:Me28S-G2743 (retired record)	DRSC00946	4.75e5	1.76e5		23252	7024	inactive
wrapper	DRSC04723	84340	69372		3113	2401	inactive
Art1	DRSC16063	81691	84384		3210	2883	inactive
Osi1	DRSC12271	86036	1.40e5		3360	3808	inactive
Hsc70-1	DRSC11185	47716	33187	23416	2512	514	inactive
Su(z)3 (retired record)	DRSC07558	20496	22357		612	1948	inactive
CG12376	DRSC06144	1.65e5	1.07e5		6739	4608	inactive
CG31769	DRSC01361	1.43e5	2.19e5		3753	10227	inactive
gw	DRSC17135	1.62e5	85928		3184	2900	inactive
gw	DRSC17160	42124	76444		1159	3340	inactive
Dpy-30L1	DRSC02959	1.02e5	48845		3180	4906	inactive
APC10	DRSC06071	1.04e5	76017		2658	5815	inactive
Spf45	DRSC03826	73440	53164		2241	5456	inactive
CG17732	DRSC10283	1.20e5	1.36e5		4466	3965	inactive
CG11899	DRSC16656	98298	91064		2128	2714	inactive
Zip42C.1	DRSC05003	86432	54544		2106	2344	inactive
Npc2b	DRSC15464	71540	91185		2456	1939	inactive
usp	DRSC18847	83397	2.73e5		2704	10754	inactive
trio	DRSC07928	91865	3.10e5		2459	10933	inactive
trio	DRSC08527	1.40e5	66593		3728	1803	active
trio	DRSC08740	86253	37673		2864	3129	inactive
CG31815	DRSC01548	1.16e5	2.02e5		3475	8033	inactive

Already shown: 11 of the entries above.
target	amplicon	firefly Hh reporter signal, replicate 1	firefly Hh reporter signal, replicate 2	firefly Hh reporter signal, replicate 3	Renilla reference signal, replicate 1	Renilla reference signal, replicate 2	call
CG15399	DRSC00413	1.43e5	1.25e5		3355	3424	inactive
hoip	DRSC03546	9339	9264		560	1234	active
Arpc4	DRSC02917	1.01e5	37414		2999	4101	inactive
TTLL4A	DRSC02528	1.12e5	1.35e5		4354	5251	inactive
CG4161	DRSC01930	86658	67142		2324	6332	inactive
Hsp70Bb + Hsp70Ba + Hsp70Bc + 1 more	DRSC21247	56534	1.01e5		2471	4518	inactive
Hsp70Bb + Hsp70Ba + Hsp70Bc + 1 more	DRSC21248	55994	1.24e5		2261	5930	inactive
TfIIA-S	DRSC16883	4.46e5	64295		22853	2109	inactive
CG1513	DRSC05194	95708	2.10e5		2316	8187	inactive
CG1513	DRSC06553	4.32e5	75649		3780	3780	inactive
CG1513	DRSC06554	1.41e5	83289		3464	6084	inactive

Continued:
target	amplicon	firefly Hh reporter signal, replicate 1	firefly Hh reporter signal, replicate 2	firefly Hh reporter signal, replicate 3	Renilla reference signal, replicate 1	Renilla reference signal, replicate 2	call
nst	DRSC09755	86899	66780		3013	2298	inactive
Glyp	DRSC00752	4.97e5	1.16e5		5813	5813	inactive
Tomosyn	DRSC19365	50896	50146		1965	1440	inactive
Tomosyn	DRSC19692	1.65e5	7.39e5	3.76e5	6530	4445	inactive
Tomosyn	DRSC19782	84448	69717		2119	2000	inactive
Tomosyn	DRSC19842	1.47e5	6.33e5	3.82e5	5402	4717	inactive
CG10959	DRSC17769	88603	1.05e5		2250	2900	inactive
FASN3	DRSC20882	62546	1.97e5		1372	7941	inactive
CG32454	DRSC11652	1.04e5	67213		4115	2986	inactive
dpr9	DRSC14534	1.25e5	89880		4794	3490	inactive
dpr9	DRSC14985	61701	69212		1367	1821	inactive
dpr9	DRSC14986	73440	64887		2151	1828	inactive
Ns3	DRSC18607	1.17e5	1.05e5		3093	3655	inactive
CG15429	DRSC00444	88868	53122		1187	5290	inactive
tea	DRSC06110	40219	46659		1820	1684	inactive
tea	DRSC06236	99208	51352		2656	4058	inactive
Sesn	DRSC04101	1.31e5	83638		5556	3152	inactive
Sesn	DRSC04102	97047	57430		1696	4841	inactive
Sesn	DRSC04103	1.27e5	1.35e5		3056	8768	inactive
CG9646	DRSC07342	76064	68137		2480	4118	inactive
CG17027	DRSC10238	1.58e5	76453		6379	2822	inactive
Pak3	DRSC15017	91015	90971		3517	3312	inactive
RnpS1	DRSC15154	81712	52370		4454	2868	inactive
CG9917	DRSC20218	92131	78960		1909	1153	inactive
jb	DRSC20531	73090	2.08e5		1671	9419	inactive
CG34451	DRSC09388	2.72e5			6165		inactive
CG34451	DRSC09389	2.99e5			6791		inactive
